Values quoted from earlier work in patent US12612410B2 (CHILDREN'S HOSPITAL MEDICAL CENTER, priority 2020, dated 2026).
For at least one compound, name, drawing or mass did not settle the structure.

Tested on: AML cell lines
Conditions: combined with an exemplary IRAK inhibitor; from U.S. application Ser. No. 16/804,518; cited from earlier work

For `CC1(C)CCC(CN2CCN(c3ccc(C(=O)NS(=O)(=O)c4ccc(NCC5CCOCC5)c([N+](=O)[O-])c4)c(Oc4cnc5[nH]ccc5c4)c3)CC2)=C(c2ccc(Cl)cc2)C1` [venetoclax], the “increase of the potency of venetoclax” value is listed as roughly 50 fold.
